These results are taken from paper PMC7078350.

Protein sequences, listed by entry. Tags and fused reporters are not part of them.
UniProt Q2LAE1: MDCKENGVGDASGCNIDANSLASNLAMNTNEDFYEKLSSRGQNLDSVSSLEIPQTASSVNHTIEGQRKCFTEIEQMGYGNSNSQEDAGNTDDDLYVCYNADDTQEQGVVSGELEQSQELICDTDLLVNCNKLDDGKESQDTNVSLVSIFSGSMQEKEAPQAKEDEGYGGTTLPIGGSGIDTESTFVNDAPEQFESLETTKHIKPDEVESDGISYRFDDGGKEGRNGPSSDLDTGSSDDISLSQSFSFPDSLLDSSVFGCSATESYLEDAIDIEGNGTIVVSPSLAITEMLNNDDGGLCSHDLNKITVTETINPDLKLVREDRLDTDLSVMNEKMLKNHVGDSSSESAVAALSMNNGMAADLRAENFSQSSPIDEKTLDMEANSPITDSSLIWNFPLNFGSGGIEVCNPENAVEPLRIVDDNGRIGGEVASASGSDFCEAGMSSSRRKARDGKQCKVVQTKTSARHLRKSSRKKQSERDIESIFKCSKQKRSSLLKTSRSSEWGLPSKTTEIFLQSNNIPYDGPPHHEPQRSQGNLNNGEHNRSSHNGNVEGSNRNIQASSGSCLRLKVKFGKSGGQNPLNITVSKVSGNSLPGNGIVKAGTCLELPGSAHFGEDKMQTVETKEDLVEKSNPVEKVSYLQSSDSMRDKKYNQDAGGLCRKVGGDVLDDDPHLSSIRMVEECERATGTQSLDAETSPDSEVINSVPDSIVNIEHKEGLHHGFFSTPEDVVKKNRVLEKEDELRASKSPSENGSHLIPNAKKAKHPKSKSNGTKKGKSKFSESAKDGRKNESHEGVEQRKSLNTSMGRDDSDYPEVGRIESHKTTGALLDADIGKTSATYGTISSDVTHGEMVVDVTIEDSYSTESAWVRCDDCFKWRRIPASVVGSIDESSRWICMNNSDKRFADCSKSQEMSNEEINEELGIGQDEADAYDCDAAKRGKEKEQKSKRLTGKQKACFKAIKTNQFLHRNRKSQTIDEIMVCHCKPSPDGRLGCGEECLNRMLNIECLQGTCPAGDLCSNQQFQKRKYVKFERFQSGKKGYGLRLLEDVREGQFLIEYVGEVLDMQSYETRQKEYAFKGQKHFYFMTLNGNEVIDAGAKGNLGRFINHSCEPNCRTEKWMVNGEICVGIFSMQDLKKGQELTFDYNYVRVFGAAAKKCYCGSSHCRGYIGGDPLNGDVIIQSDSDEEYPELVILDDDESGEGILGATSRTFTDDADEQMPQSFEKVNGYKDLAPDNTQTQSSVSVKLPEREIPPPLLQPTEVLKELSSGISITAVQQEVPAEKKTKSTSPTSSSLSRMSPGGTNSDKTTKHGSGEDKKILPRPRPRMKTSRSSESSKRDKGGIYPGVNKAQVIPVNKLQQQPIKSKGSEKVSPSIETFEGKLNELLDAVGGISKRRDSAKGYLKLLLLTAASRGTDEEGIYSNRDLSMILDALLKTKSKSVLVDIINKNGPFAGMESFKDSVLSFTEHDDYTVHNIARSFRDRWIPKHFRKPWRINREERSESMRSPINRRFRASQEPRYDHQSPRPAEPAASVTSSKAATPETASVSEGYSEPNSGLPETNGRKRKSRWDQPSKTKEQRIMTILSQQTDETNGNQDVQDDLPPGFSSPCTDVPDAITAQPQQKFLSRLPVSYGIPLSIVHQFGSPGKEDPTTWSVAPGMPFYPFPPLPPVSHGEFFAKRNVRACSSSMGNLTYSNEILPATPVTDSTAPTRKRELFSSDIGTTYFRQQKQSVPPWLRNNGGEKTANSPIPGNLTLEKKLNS

These are yes or no findings as the source states them, for the method shown. Sequences can lack the tags named with a protein.

For this assay, the target named is T1, Protein kinase Kin28 fused to the Gal4 DNA binding domain (UniProt P06242).
T1 sequence: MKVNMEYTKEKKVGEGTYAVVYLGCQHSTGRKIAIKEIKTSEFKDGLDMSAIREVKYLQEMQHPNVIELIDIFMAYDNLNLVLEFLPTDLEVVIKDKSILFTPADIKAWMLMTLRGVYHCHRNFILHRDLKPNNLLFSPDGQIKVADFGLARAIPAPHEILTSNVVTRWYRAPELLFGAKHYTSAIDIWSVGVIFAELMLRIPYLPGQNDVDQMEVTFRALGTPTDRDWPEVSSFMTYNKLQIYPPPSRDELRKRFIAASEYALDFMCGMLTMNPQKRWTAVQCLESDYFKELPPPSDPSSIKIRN
Nature of the assay: two-hybrid; tethered yeast two-hybrid in strain AH109; SDG8 or SDG26 on the Gal4 activation domain, Kin28, CTD-Kin28 or CTD-mKin28 on the Gal4 DNA binding domain; growth 4 days at 30°C on SD-LWH + 25 mM 3AT and SD-LWAH, SD-LW as control.

Take “SDG8, full length, fused to the Gal4 activation domain (from UniProt Q2LAE1 1-1759) (enzyme)”: the binding result is listed as “no binding”.
